Results reported in publication PMC5036795.

The chains behind the UniProt entries cited, without tags or fusion partners. Where a name states a change or a piece, a line headed by the entry shows the natural chain unless it says otherwise.
UniProt Q7AKP9: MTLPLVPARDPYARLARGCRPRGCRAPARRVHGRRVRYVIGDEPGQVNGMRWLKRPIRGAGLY

B1: putative leucyl aminopeptidase (PepA), product of SCO2179 (enzyme, UniProt Q9S2Q7 1-517)
chain: MTALTLSTAAAPGLRADAIVIGVAKGAGGPSVAPGAEAVDKAYDGRLAAVLETLGASGAEGEVTKLPAPSGFKAPVVVAVGLGAEPEKDAGFDPEALRRAAGAAARALAGAKKAAFALPLAEAADAGVVAEGLLLGAYSFDAYKASAKEAKEAKGAKAKANGNGKAPLAEAALLGGKPRDKAYKAAIERATAVAEELNRARDLVNTPPNDLDPEAFAAVAQAAAKEHGIKVQVLDEKALVKGGYGGILGVGAGSASGPRLVKLSYTSPKAKKSLAFVGKGITYDSGGISLKPAGHNETMKCDMAGAAAVFAAVVAAARLGLEVNVTGWLALAENMPSGSATRPGDVLRMYSGKTVEVLNTDAEGRLVLADALWAASQDEPDAIIDVATLTGAMMLALGSRTYGIMANDDAFRSAVHEAAEESGEPAWPMPLPEHLRKGMDSPTADIANMGERMGGGLVAGLFLREFVGEGITWAHLDIAGPAFNEGGPFGYTPKGGTGTAVRTLVRVAELAAAGELG
B2: ribosomal protein S2 (RpsB), product of SCO5624 (protein, UniProt O31212 1-310)
chain: MAVVTMRELLESGVHFGHQTRRWNPKMKRFIFTERNGIYIIDLLQSLSYIDRAYEFVKETVAHGGTVMFVGTKKQAQEAIAEQATRVGMPYVNQRWLGGMLTNFSTVYKRLQRLKELEQIDFEDVAASGLTKKELLVLSREKAKLEKTLGGIREMSKVPSAVWIVDTKKEHIAVGEARKLNIPVVAILDTNCDPDEVDHKIPGNDDAIRSVTLLTRVIADAVAEGLIARSGAAGGAKGDKAAGEPLAAWERDLLEGEKAEKKDDAEAAEKPAEAPAAEAPAAEAAEAPAAEAAPAEEPAAEAPAADAEQA

Target: TrpM-His6 (SCO2038 product, His-tagged TrpM) (Streptomyces coelicolor A3(2)) (UniProt Q7AKP9)
Test: affinity purification with mass spectrometry; His-tag pull-down: TrpM-His6 immobilised on cobalt-containing Dynabeads as bait; prey: S. coelicolor A3(2) protein extract (3 days on MM) pre-cleared on Dynabeads alone; eluate on 15% SDS-PAGE, silver staining; bands present only with the bait identified by nanoLC-ESI-LIT-MS/MS; control: extract of E. coli with non-recombinant pRSETB; only the target purified

Row | Molecule | binding
1 | ribosomal protein S1 (RpsA), product of SCO1998 (from UniProt Q9S2K5 1-502) | binds
2 | B1 | binds
3 | B2 | binds

These are yes or no findings as the source states them, for the method shown. Binding seen in cells or lysates may run through a third protein. A yes stands for co-enrichment or nearness to the bait. Other partners may have been found.
